“And” between values parts separate entries of the source, which are not always exact repeats. Equal values may be shown once. Screen size: about 400,000 compounds; about 13,000 (3.2%) were called active. This list was built around the results that the source calls inconclusive (neither active nor inactive); the mix of calls is not that of the screen. Calls follow the shape of the dose curve; as a rule, active = well fitted cell-killing curve with a large enough effect; inconclusive = small, poorly fitted or top-dose-only effect, or effect the other way; inactive = flat fitted curve, though single readings scatter. Where the call is inconclusive, the potency comes from a doubtful curve fit.
Experiment: qHTS assay for MDR1-selective chemotherapeutics: Primary screen using the drug-selected MDR subline cells KB-V1; also: nearly all actives have a fitted effect of over 60% in size
Conditions: KB-V1 MDR cells viability, CellTiter-Glo, 72 h; activity change, negative = cytotoxicity: at 46.1 µM (top of the series)
How it was run: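 In this primary screen, KB-V1 cells overexpressing P-gp are incubated with library compounds (lowest to highest concentration) for 72 h at 37 degrees C before a luminescent ATP viability read.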
In the case of `CCc1nc2ccc(C(=O)NCc3ccccc3OC)cn2c1N(C)Cc1ccc(OC)cc1`, the Potency is reported as inconclusive: 29.1 µM [cytotoxic, single point].
For `Cc1cccc(C)c1NC(=O)c1ccc(N2CCCC2=O)cc1`, the activity change, negative = cytotoxicity was inconclusive: -32.8% [cytotoxic].
In the case of `COc1ccc(C(=O)Nc2cc([N+](=O)[O-])ccc2N2CCCC2)cc1`, the Potency is reported as inconclusive: 29.1 µM [cytotoxic, single point].
For `CCC(Oc1ccccc1)C(=O)N1CCN(CC)CC1` (stereo not given), the “activity change, negative = cytotoxicity” value was inactive: 13.8%.
With `CC(NC(=O)CN1CCc2ccccc21)c1ccccc1` (stereo not given) the Potency was inconclusive: 23.1 µM [cytotoxic, single point].
With `N#Cc1ccc(CSc2nnc(-c3c[nH]c4ccccc34)n2-c2ccccc2)cc1` the Potency was inconclusive: 10.3 µM [cytotoxic, partial curve].
For `CCOC(=O)c1sc2nc(C)nc(NCc3ccc(Cl)cc3)c2c1C`, the Potency was inconclusive: 29.1 µM [cytotoxic, single point].
With `CCCCC[C@H](C)N1C[C@H](COCc2ccccc2)Oc2cc(N3CC[C@@H](O)C3)ccc2S1(=O)=O` the “activity change, negative = cytotoxicity” value was inactive: -9.12%.
For `Cc1cccc(NC(=O)CSc2nnc(CNC(=O)c3c(F)cccc3Cl)o2)c1C`, the Potency was inconclusive: 23.1 µM [rising, single point].
With `COc1ccc(-n2nc3c(N4CCC(C(=O)NCC(C)c5ccccc5)CC4)nnc(C)c3c2C)cc1` (stereo not given) the “activity change, negative = cytotoxicity” value was inactive: -27.9%.
For `O=C(NCCc1ccccc1)C1CCCN(S(=O)(=O)c2cccc3nsnc23)C1` (stereo not given), the Potency was inconclusive: 11.6 µM [cytotoxic, partial curve].
With `Cc1cccc(-c2nc3scc(CCNC(=O)c4ccccc4Cl)n3n2)c1` the “activity change, negative = cytotoxicity” value was inactive: 11.7%.
In the case of `CCCCCn1c(=O)[nH]c2cc(C(=O)Nc3ccc(F)cc3)ccc2c1=O`, the “activity change, negative = cytotoxicity” value is reported as inactive: -4.83%.
With `O=C(c1cccc(C(F)(F)F)c1)C1CCCN(C(=O)CCCn2cncn2)C1` (stereo not given) the Potency was inconclusive: 18.4 µM [cytotoxic, single point].
In the case of `NC(=O)c1ccccc1OC1CCC1`, the Potency is reported as inconclusive: 9.2 µM [rising, partial curve, poor fit].
With `COc1ccc(CN(CC(O)COCc2ccccc2)S(=O)(=O)c2ccccc2Br)cc1OC` (stereo not given) the Potency was inconclusive: 25.9 µM [cytotoxic, single point].
With `COc1ccc(N2CCN(C(=O)C(=O)c3cc(OC)c4ccccc4c3)CC2)cc1` the Potency was inconclusive: 23.1 µM [cytotoxic, partial curve].
For `Cn1c(=O)c(Oc2ccc(F)cc2)c(O)c2ccccc21`, the “activity change, negative = cytotoxicity” value was inactive: 2.03%.
With `COCC1CCN(C(=O)CCc2nnc(C3(c4ccc(Cl)cc4)CCC3)o2)CC1` the Potency was inconclusive: 2.06 µM [cytotoxic, full curve, poor fit].
With `CC(=O)/C(=N\Nc1ccc(Cl)cc1Cl)Sc1cccc2cccnc12` the Potency was active: 18.4 µM.
For `COc1ccc(C(CNC(=O)c2ccc(OCc3ccccc3)cc2)N2CCOCC2)cc1` (stereo not given), the Potency was inconclusive: 18.4 µM [cytotoxic, partial curve, poor fit].
For `CC(C)(C)OC(=O)N1CCC(Cc2cc(-c3cccnc3)no2)(C(=O)O)CC1`, the “activity change, negative = cytotoxicity” value was inactive: 17.4%.
With `N#Cc1c(N)oc(-c2ccc3c(c2)OCO3)c1-c1ccc2c(c1)OCO2` the Potency was active: 16.4 µM.
In the case of `O=C(Cc1cccs1)N1CCN(S(=O)(=O)c2cc(Cl)ccc2Cl)CC1`, the Potency is reported as inconclusive: 10.3 µM [cytotoxic, partial curve].
For `O=C(NCC(c1ccco1)N1CCCC1)c1cc(S(=O)(=O)N2CCOCC2)ccc1Cl` (stereo not given), the “activity change, negative = cytotoxicity” value was inactive: 7.43%.
For `CN(CCCn1cnc2c(OCc3ccccc3)ncnc21)Cc1ccco1`, the Potency was inconclusive: 2.59 µM [cytotoxic, partial curve, poor fit].
For `COc1ccccc1CNC(=O)c1cccc(Nc2nc3ccccc3n3nnnc23)c1`, the “activity change, negative = cytotoxicity” value was inactive: 0.0176%.
In the case of `O=C(Nc1cccc(C(F)(F)F)c1)c1ccc(Cn2cc(Br)cn2)o1`, the “activity change, negative = cytotoxicity” value is reported as inactive: -28.7%.
With `COc1ccccc1N1CCN(C(=O)c2cn(Cc3ccccc3)nc2-c2cccnc2)CC1` the Potency was inconclusive: 11.6 µM [cytotoxic, partial curve, poor fit].
In the case of `CC1CCCC(C)N1C(=O)COC(=O)c1ccc([N+](=O)[O-])o1` (stereo not given), the Potency is reported as inconclusive: 29.1 µM [rising, single point].
For `C=CCN(c1ccc(Br)cc1C(=O)OC)S(C)(=O)=O`, the Potency was inconclusive: 0.651 µM [rising, full curve].
With `Cc1nn(Cc2ccc(F)cc2)c(C)c1NC(=O)c1cnn2c1NC(c1cccs1)CC2C(F)(F)F` (stereo not given) the Potency was active: 20.6 µM.
In the case of `COc1ccccc1C(C(=O)NC1CCCC1)N(C(=O)c1csnn1)C1CC1` (stereo not given), the “activity change, negative = cytotoxicity” value is reported as inactive: -26.6%.
In the case of `COc1ccc(Cc2nnc(N/N=C/c3ccc(O)cc3O)[nH]c2=O)cc1OC`, the “activity change, negative = cytotoxicity” value is reported as inactive: -32.9%.
For `O=C(/C=C/c1ccc(OC(F)F)cc1)Nc1cccc(S(=O)(=O)NC2=NCCCCC2)c1`, the Potency was inconclusive: 20.6 µM [cytotoxic, single point].
In the case of `Cc1ccccc1-c1nnn(CC(=O)N(C)CC(=O)Nc2ccccc2C(F)(F)F)n1`, the Potency is reported as inconclusive: 29.1 µM [cytotoxic, single point].
For `COc1ccc(NC(=O)CN(C)C(=O)Cc2ccc3c(c2)OCCO3)cc1`, the activity change, negative = cytotoxicity was inconclusive: -20.6%.
With `CC1=CC(=C(c2ccc(N)cc2)c2ccc(N)cc2)C=CC1=N` the Potency was inconclusive: 1.46 µM [cytotoxic, full curve].
In the case of `CCN(CC)CCCN(Cc1cc2cc3c(cc2[nH]c1=O)OCCO3)C(=O)Nc1ccccc1`, the “activity change, negative = cytotoxicity” value is reported as inactive: 0%.
With `O=C(COC(=O)/C=C/c1ccco1)NCc1ccccc1Cl` the Potency was inconclusive: 4.61 µM [rising, full curve].
For `O=c1cc(-c2cccc(F)c2)oc2ccccc12`, the Potency was inconclusive: 29.1 µM [cytotoxic, single point].
For `C[C@@H](c1ccccc1)N1C[C@@H](COCc2ccccc2)Oc2cc(N3CC[C@H](O)C3)ccc2S1(=O)=O`, the Potency was inconclusive: 20.6 µM [cytotoxic, single point].
For `O=c1nc2s/c(=C\c3ccco3)c(=O)n2nc1Cc1ccccc1`, the Potency was inconclusive: 13 µM [rising, partial curve].
For `N#CCSc1nnc(C2CCCCC2)n1Cc1ccccc1`, the “activity change, negative = cytotoxicity” value was inactive: 2.94%.
With `COc1cc(-c2cc(NC=O)c3ncc(-c4ccc(C(C)=O)cc4)n3c2)cc(OC)c1OC` the Potency was inconclusive: 25.9 µM [cytotoxic, single point].
In the case of `O=C(c1ccc2c(Cl)c3c(nc2c1)CCCC3)N1CCN(c2cccc(Cl)c2)CC1`, the Potency is reported as inconclusive: 32.6 µM [cytotoxic, single point].
For `COCCNc1nnc(Cc2ccc(Cl)cc2)c(=O)[nH]1`, the “activity change, negative = cytotoxicity” value was inactive: -0.196%.
With `Nc1ccn([C@@H]2O[C@H](C(=O)N3CCCN(Cc4ccccc4F)CC3)[C@@H](O)[C@H]2O)c(=O)n1` the Potency was inconclusive: 5.8 µM [rising, full curve].
For `CCN(CC)S(=O)(=O)c1ccc(NS(=O)(=O)c2ccc(O)c([N+](=O)[O-])c2)cc1`, the Potency was inconclusive: 29.1 µM [rising, single point].
For `CCn1c(SCC(=O)Nc2ccc(S(=O)(=O)Nc3ccccn3)cc2)nnc1-c1ccncc1`, the activity change, negative = cytotoxicity was inconclusive: 52.5%.
In the case of `CC1(c2ccccc2)CC(C)(C)N2C(=O)C3(C(C#N)=C(N)Oc4cc(O)ccc43)c3cccc1c32` (stereo not given), the Potency is reported as active: 20.6 µM.
With `COc1cc(NC(=O)c2nccn2C)cc(C(=O)Nc2cccc(C(F)(F)F)c2)c1` the Potency was inconclusive: 20.6 µM [cytotoxic, single point] and active: 4.11 µM.
For `O=C1C=CC(=O)N1c1ccc(N2CCCCC2)cc1`, the Potency was inconclusive: 29.1 µM [cytotoxic, single point].
For `CCCC(=O)Nc1ccc(C(=O)NNC(=O)c2ccco2)cc1`, the Potency was inconclusive: 35.5 µM [cytotoxic, single point].
In the case of `Cc1c(C)n(C)c2ccc(C(=O)NCCCN3CCCCC3)cc12`, the activity change, negative = cytotoxicity is reported as inconclusive: 12%.
With `COc1ccc(CCC(=O)N2CCCc3ccccc32)cc1` the Potency was inconclusive: 14.6 µM [cytotoxic, single point].
With `COc1ccc(C(=O)NNC(=S)NC(=O)c2ccco2)cc1` the Potency was inconclusive: 3.66 µM [cytotoxic, partial curve, poor fit].
In the case of `COc1ccc(NC(=O)C2=C(C)Nc3nc(SCc4ccccc4)nn3C2c2cc(OC)ccc2OC)cc1` (stereo not given), the “activity change, negative = cytotoxicity” value is reported as inactive: 10.5%.
With `O=c1c2cc(-c3ccccc3)sc2ncn1/N=C/c1ccco1` the Potency was inconclusive: 20.6 µM [cytotoxic, single point].
In the case of `COC(=O)c1cc(OC)c(OC)cc1NCC(=O)Nc1ccc(C)cc1`, the Potency is reported as active: 23.1 µM.
For `COC(=O)C(C(=O)Nc1ncccn1)C1CCCCCC1` (stereo not given), the Potency was inconclusive: 25.9 µM [rising, single point].
With `CCCNC(=O)c1cc(-c2ccc(OC)cc2)on1` the Potency was inconclusive: 16.4 µM [cytotoxic, partial curve].
In the case of `COCCc1nn2c(=O)cc(COC(=O)c3ccc(C(C)(C)C)cc3)nc2s1`, the “activity change, negative = cytotoxicity” value is reported as inactive: -18.1%.
With `CCCN1C(=O)C(O)(CC(=O)c2cccc(OC)c2)c2ccccc21` (stereo not given) the “activity change, negative = cytotoxicity” value was inactive: 12.7%.
With `CCOC(=O)N1CCN(C(=S)Nc2ccc(C)c(C)c2)CC1` the “activity change, negative = cytotoxicity” value was inactive: 19.3%.
In the case of `Cc1cc(NC(=O)C2CCCCC2)n(-c2nc3ccccc3[nH]2)n1`, the Potency is reported as inconclusive: 9.2 µM [cytotoxic, partial curve].
For `O=C(COc1ccccc1Cl)Nc1ccc(C(=O)N2CCCCC2)cc1`, the “activity change, negative = cytotoxicity” value was inactive: 2.88%.
In the case of `Cc1ccc(Nc2nc(N/N=C/c3c[nH]c4ccccc34)nc(N3CCOCC3)n2)cc1`, the Potency is reported as inconclusive: 29.1 µM [cytotoxic, single point].
In the case of `CCOC(=O)c1c(C2CC2)csc1NC(=O)COC(=O)c1cc(OC)c(OC)cc1[N+](=O)[O-]`, the “activity change, negative = cytotoxicity” value is reported as inactive: 0.524%.
With `COc1cccc(CN(C)C(=O)c2cc(S(=O)(=O)NC3CCCCC3)ccc2C)c1OC` the Potency was inconclusive: 32.6 µM [cytotoxic, single point].

Source: PubChem BioAssay AID1347076 (National Center for Advancing Translational Sciences (NCATS), 2019)
% is scaled to controls: 0 for no effect and ±100 for the full control effect; potency is read from the fitted curve at half-maximal effect.
